Experimental data taken from patent publication US20220275372A1 (priority 2019, published 2022).

assay: general procedure: Fmoc solid-phase peptide synthesis; Fmoc-β-Ala-OH preloaded Wang resin (0.19 or 0.46 mmol g^−1, Merck Millipore); PyBOP/NMM (Intavis); conditions: conjugation step, dried weight of lyophilised purified P-PMO

Row | Substance | conjugation yield
1 | Ac-RBRRBRRFQILYRBHBH-B | 31%
2 | Ac-RBRRBRFQILYRBHBH-B | 36%
3 | Ac-RBRRBRRFQILYRBHBH-Ab | 17%
4 | Ac-RBRRBRFQILYRBHBH-E | 35%
5 | Ac-RBRRBRRFQILYRBRBR-B | 36%
6 | Ac-RBRRBRRFQILYRBHBH-E | 25%
7 | Ac-RBRRBRFQILYRBRBR-B | 41%
8 | Succ-RBRRBRRFQILYRBHBH-NH2 | 37%
